In article PMC11316025:
These are yes or no findings as the source states them, for the method shown. In cells and extracts the contact can be indirect. Binding calls can cover weak binding; strength is not graded here. For part of these data: Tags and fused reporters may be left off the sequences shown.

Chains of the proteins cited; added tags and fusions are not shown. Lines headed by an entry give the natural chain unless they say otherwise; changes in a name come on top.
UniProt Q8WWW0: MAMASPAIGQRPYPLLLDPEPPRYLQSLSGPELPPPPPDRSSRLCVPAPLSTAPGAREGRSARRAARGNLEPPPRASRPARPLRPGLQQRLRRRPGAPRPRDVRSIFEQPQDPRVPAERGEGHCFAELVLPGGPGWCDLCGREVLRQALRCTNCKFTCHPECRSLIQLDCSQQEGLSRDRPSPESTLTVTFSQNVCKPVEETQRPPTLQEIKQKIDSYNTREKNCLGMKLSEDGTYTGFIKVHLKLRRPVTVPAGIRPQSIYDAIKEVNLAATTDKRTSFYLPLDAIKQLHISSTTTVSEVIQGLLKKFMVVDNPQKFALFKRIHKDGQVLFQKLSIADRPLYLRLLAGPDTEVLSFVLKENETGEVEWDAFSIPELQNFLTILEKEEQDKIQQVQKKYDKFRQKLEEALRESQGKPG
UniProt Q8NHQ8: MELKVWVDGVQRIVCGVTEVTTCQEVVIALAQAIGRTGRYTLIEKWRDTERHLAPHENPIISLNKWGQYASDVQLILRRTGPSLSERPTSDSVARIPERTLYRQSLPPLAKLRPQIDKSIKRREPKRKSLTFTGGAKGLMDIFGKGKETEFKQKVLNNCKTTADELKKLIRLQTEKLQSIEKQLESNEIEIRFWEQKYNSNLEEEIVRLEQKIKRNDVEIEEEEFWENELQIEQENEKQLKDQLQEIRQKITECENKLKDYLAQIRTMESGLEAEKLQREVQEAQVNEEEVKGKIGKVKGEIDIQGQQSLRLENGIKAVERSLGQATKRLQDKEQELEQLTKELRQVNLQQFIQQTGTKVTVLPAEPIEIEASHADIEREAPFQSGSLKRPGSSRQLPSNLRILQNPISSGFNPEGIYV
UniProt Q86WH2: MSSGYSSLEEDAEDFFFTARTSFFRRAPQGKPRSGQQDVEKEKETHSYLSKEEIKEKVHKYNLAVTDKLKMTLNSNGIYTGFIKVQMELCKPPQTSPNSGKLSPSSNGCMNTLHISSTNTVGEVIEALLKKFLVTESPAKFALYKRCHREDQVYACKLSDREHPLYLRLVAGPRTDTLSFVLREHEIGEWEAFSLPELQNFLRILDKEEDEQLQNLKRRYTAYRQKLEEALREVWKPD
UniProt Q9H2L5: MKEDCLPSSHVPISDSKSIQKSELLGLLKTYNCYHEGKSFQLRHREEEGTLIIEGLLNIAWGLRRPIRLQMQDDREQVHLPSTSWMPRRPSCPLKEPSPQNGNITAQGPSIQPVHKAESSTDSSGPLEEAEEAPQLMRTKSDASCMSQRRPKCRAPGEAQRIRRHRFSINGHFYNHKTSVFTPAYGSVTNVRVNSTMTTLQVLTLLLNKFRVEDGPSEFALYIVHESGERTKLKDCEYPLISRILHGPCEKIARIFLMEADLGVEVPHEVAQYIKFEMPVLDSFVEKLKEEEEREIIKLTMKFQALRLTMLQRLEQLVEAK

Assays:
[1] = biological target: GST-tagged RASSF5 RA domain (human) (UniProt Q8WWW0); assay: pull-down; systematic screen: 2 µM purified GST-tagged RBD/RA domain (or GST alone) and glutathione beads incubated 30 min with HEK 293T lysate expressing a VENUS-tagged GTPase; Bio-Spin columns on a vacuum manifold, washed three times with lysis buffer (20 mM Tris-HCl pH 7.5, 150 mM NaCl, 5 mM MgCl2, 10% glycerol, 1% Triton X-100, 1% NP-40, 1 mM DTT); Western blot; GST-alone signal subtracted; heatmap from two replicates; only the target purified
[2] = biological target: GST-tagged RASSF5 RA domain (human) (UniProt Q8WWW0); assay: pull-down; validation pull-downs (Fig. EV1C, Fig. 2A): recombinant purified GST-RASSF5 RA or GST alone with HEK 293T lysates expressing VENUS-tagged GTPases (activated, wild-type or dominant-negative variants); Western blot; only the target purified
[3] = biological target: GST-tagged RASSF8 RA domain (human) (UniProt Q8NHQ8); assay: pull-down; systematic screen: 2 µM purified GST-tagged RBD/RA domain (or GST alone) and glutathione beads incubated 30 min with HEK 293T lysate expressing a VENUS-tagged GTPase; Bio-Spin columns on a vacuum manifold, washed three times with lysis buffer (20 mM Tris-HCl pH 7.5, 150 mM NaCl, 5 mM MgCl2, 10% glycerol, 1% Triton X-100, 1% NP-40, 1 mM DTT); Western blot; GST-alone signal subtracted; heatmap from two replicates; only the target purified
[4] = biological target: GST-tagged RASSF3 RA domain (human) (UniProt Q86WH2); assay: as above
[5] = biological target: GST-tagged RASSF4 RA domain (human) (UniProt Q9H2L5); assay: as above

Row | binding [1] | binding [2] | binding [3] | binding [4] | binding [5] | Binder
1 | – | – | binds | binds | binds | VENUS-tagged RHOBTB1 (wild-type) (protein, UniProt O94844 1-696) MDADMDYERPNVETIKCVVVGDNAVGKTRLICARACNTTLTQYQLLATHVPTVWAIDQYRVCQEVLERSRDVVDEVSVSLRLWDTFGDHHKDRRFAYGRSDVVVLCFSIANPNSLNHVKSMWYPEIKHFCPRTPVILVGCQLDLRYADLEAVNRARRPLARPIKRGDILPPEKGREVAKELGLPYYETSVFDQFGIKDVFDNAIRAALISRRHLQFWKSHLKKVQKPLLQAPFLPPKAPPPVIKIPECPSMGTNEAACLLDNPLCADVLFILQDQEHIFAHRIYLATSSSKFYDLFLMECEESPNGSEGACEKEKQSRDFQGRILSVDPEEEREEGPPRIPQADQWKSSNKSLVEALGLEAEGAVPETQTLTGWSKGFIGMHREMQVNPISKRMGPMTVVRMDASVQPGPFRTLLQFLYTGQLDEKEKDLVGLAQIAEVLEMFDLRMMVENIMNKEAFMNQEITKAFHVRKANRIKECLSKGTFSDVTFKLDDGAISAHKPLLICSCEWMAAMFGGSFVESANSEVYLPNINKISMQAVLDYLYTKQLSPNLDLDPLELIALANRFCLPHLVALAEQHAVQELTKAATSGVGIDGEVLSYLELAQFHNAHQLAAWCLHHICTNYNSVCSKFRKEIKSKSADNQEYFERHRWPPVWYLKEEDHYQRVKREREKEDIALNKHRSRRKWCFWNSSPAVA
2 | binds | binds | – | – | – | VENUS-RAP2B-G12V (protein, UniProt P61225 1-183) MREYKVVVLGSVGVGKSALTVQFVTGSFIEKYDPTIEDFYRKEIEVDSSPSVLEILDTAGTEQFASMRDLYIKNGQGFILVYSLVNQQSFQDIKPMRDQIIRVKRYERVPMILVGNKVDLEGEREVSYGEGKALAEEWSCPFMETSAKNKASVDELFAEIVRQMNYAAQPNGDEGCCSACVIL
3 | binds | binds | – | – | – | VENUS-RRAS2-G23V (protein, UniProt P62070 1-204) MAAAGWRDGSGQEKYRLVVVGGVGVGKSALTIQFIQSYFVTDYDPTIEDSYTKQCVIDDRAARLDILDTAGQEEFGAMREQYMRTGEGFLLVFSVTDRGSFEEIYKFQRQILRVKDRDEFPMILIGNKADLDHQRQVTQEEGQQLARQLKVTYMEASAKIRMNVDQAFHELVRVIRKFQEQECPPSPEPTRKEKDKKGCHCVIF
4 | – | binds | – | – | – | VENUS-tagged RRAS wild-type (protein, UniProt P10301 1-218) MSSGAASGTGRGRPRGGGPGPGDPPPSETHKLVVVGGGGVGKSALTIQFIQSYFVSDYDPTIEDSYTKICSVDGIPARLDILDTAGQEEFGAMREQYMRAGHGFLLVFAINDRQSFNEVGKLFTQILRVKDRDDFPVVLVGNKADLESQRQVPRSEASAFGASHHVAYFEASAKLRLNVDEAFEQLVRAVRKYQEQELPPSPPSAPRKKGGGCPCVLL

Further lines, the binder ahead of its results:

Row | Binder | binding [1] | binding [2] | binding [3] | binding [4] | binding [5]
5 | VENUS-RAP2C-G12V (protein, UniProt Q9Y3L5 1-183) MREYKVVVLGSVGVGKSALTVQFVTGTFIEKYDPTIEDFYRKEIEVDSSPSVLEILDTAGTEQFASMRDLYIKNGQGFILVYSLVNQQSFQDIKPMRDQIVRVKRYEKVPLILVGNKVDLEPEREVMSSEGRALAQEWGCPFMETSAKSKSMVDELFAEIVRQMNYSSLPEKQDQCCTTCVVQ | binds | binds | – | – | –
6 | VENUS-tagged RHOH (wild-type) (protein, UniProt Q15669 1-191) MLSSIKCVLVGDSAVGKTSLLVRFTSETFPEAYKPTVYENTGVDVFMDGIQISLGLWDTAGNDAFRSIRPLSYQQADVVLMCYSVANHNSFLNLKNKWIGEIRSNLPCTPVLVVATQTDQREMGPHRASCVNAMEGKKLAQDVRAKGYLECSALSNRGVQQVFECAVRTAVNQARRRNRRRLFSINECKIF | – | – | binds | binds | binds
7 | VENUS-tagged RRAS Q87L (protein, UniProt P10301 1-218) MSSGAASGTGRGRPRGGGPGPGDPPPSETHKLVVVGGGGVGKSALTIQFIQSYFVSDYDPTIEDSYTKICSVDGIPARLDILDTAGLEEFGAMREQYMRAGHGFLLVFAINDRQSFNEVGKLFTQILRVKDRDDFPVVLVGNKADLESQRQVPRSEASAFGASHHVAYFEASAKLRLNVDEAFEQLVRAVRKYQEQELPPSPPSAPRKKGGGCPCVLL | – | binds | – | – | –
8 | VENUS-tagged, mutationally activated RASL11B (protein, UniProt Q9BPW5 1-248) MRLIQNMCTIAEYPAPGNAAASDCCVGAAGRRLVKIAVVGAVGVGKTALVVRFLTKRFIGDYERNAGNLYTRQVQIEGETLALQVQDTPGIQVHENSLSCSEQLNRCIRWADAVVIVFSITDYKSYELISQLHQHVQQLHLGTRLPVVVVANKADLLHIKQVDPQLGLQLASMLGCSFYEVSVSENYNDVYSAFHVLCKEVSHKQQPSSTPEKRRTSLIPRPKSPNMQDLKRRFKQALSAKVRTVTSV | – | – | binds | – | –
9 | VENUS-RIT2-G29V (protein, UniProt Q99578 1-217) MEVENEASCSPGSASGGSREYKVVMLGAVGVGKSAMTMQFISHQFPDYHDPTIEDAYKTQVRIDNEPAYLDILDTAGQAEFTAMREQYMRGGEGFIICYSVTDRQSFQEAAKFKELIFQVRHTYEIPLVLVGNKIDLEQFRQVSTEEGLSLAQEYNCGFFETSAALRFCIDDAFHGLVREIRKKESMPSLMEKKLKRKDSLWKKLKGSLKKKRENMT | binds | binds | – | – | –
10 | VENUS-tagged RASD1-A178V (protein, UniProt Q9Y272 1-281) MKLAAMIKKMCPSDSELSIPAKNCYRMVILGSSKVGKTAIVSRFLTGRFEDAYTPTIEDFHRKFYSIRGEVYQLDILDTSGNHPFPAMRRLSILTGDVFILVFSLDNRDSFEEVQRLRQQILDTKSCLKNKTKENVDVPLVICGNKGDRDFYREVDQREIEQLVGDDPQRCAYFEISVKKNSSLDQMFRALFAMAKLPSEMSPDLHRKVSVQYCDVLHKKALRNKKLLRAGSGGGGGDPGDAFGIVAPFARRPSVHSDLMYIREKASAGSQAKDKERCVIS | – | – | binds | – | –
11 | VENUS-tagged RHOBTB2 (wild-type) (protein, UniProt Q9BYZ6 1-727) MDSDMDYERPNVETIKCVVVGDNAVGKTRLICARACNATLTQYQLLATHVPTVWAIDQYRVCQEVLERSRDVVDDVSVSLRLWDTFGDHHKDRRFAYGRSDVVVLCFSIANPNSLHHVKTMWYPEIKHFCPRAPVILVGCQLDLRYADLEAVNRARRPLARPIKPNEILPPEKGREVAKELGIPYYETSVVAQFGIKDVFDNAIRAALISRRHLQFWKSHLRNVQRPLLQAPFLPPKPPPPIIVVPDPPSSSEECPAHLLEDPLCADVILVLQERVRIFAHKIYLSTSSSKFYDLFLMDLSEGELGGPSEPGGTHPEDHQGHSDQHHHHHHHHHGRDFLLRAASFDVCESVDEAGGSGPAGLRASTSDGILRGNGTGYLPGRGRVLSSWSRAFVSIQEEMAEDPLTYKSRLMVVVKMDSSIQPGPFRAVLKYLYTGELDENERDLMHIAHIAELLEVFDLRMMVANILNNEAFMNQEITKAFHVRRTNRVKECLAKGTFSDVTFILDDGTISAHKPLLISSCDWMAAMFGGPFVESSTREVVFPYTSKSCMRAVLEYLYTGMFTSSPDLDDMKLIILANRLCLPHLVALTEQYTVTGLMEATQMMVDIDGDVLVFLELAQFHCAYQLADWCLHHICTNYNNVCRKFPRDMKAMSPENQEYFEKHRWPPVWYLKEEDHYQRARKEREKEDYLHLKRQPKRRWLFWNSPSSPSSSAASSSSPSSSSAVV | – | – | binds | binds | binds
